According to publication PMC4264749, “Phlebotomy Treatment for Elimination of Perfluoroalkyl Acids in a Highly Exposed Family: A Retrospective Case-Series” (PLoS ONE, 2014):

Test: Apparent elimination half-life (HLapp) and phlebotomy efficiency coefficient in treated family members
Format: in vivo, human
Details: phlebotomy efficiency coefficient
From the text: To evaluate the effect of phlebotomy, versus the expected rate of intrinsic elimination, we graphically and statistically compared the observed decreasing trends in each family member (fitted to a simple exponential decay model) with reference population elimination kinetics. Specifically, for the reference population of occupationally exposed retirees, we considered: i) the 95% confidence interval of the geometric mean elimination rate for each PFAA, and ii) the fastest individual rate of elimination rate among the reference population. For comparative purposes, the concentration of each PFAA in serum on the first day of the intervention was taken as time zero, and the models were forced through this starting point.
One metric that was calculated to compare the efficiency of the phlebotomy for removal of different PFAAs in each family member was termed the phlebotomy efficiency coefficient (EC). This was based on the subtractive difference between HLapp (yrs) in each treated family member and the geometric mean HLin (yrs) of the reference population according to Equation 1 . [drawing 1] (1)

Structure (SMILES) | phlebotomy efficiency for enhancing PFAA elimination (order)
O=S(=O)(O)C(F)(F)C(F)(F)C(F)(F)C(F)(F)C(F)(F)C(F)(F)C(F)(F)C(F)(F)F [PFOS, perfluoroctane sulfonate] | PFOS≈PFHxS>PFOA
O=S(=O)(O)C(F)(F)C(F)(F)C(F)(F)C(F)(F)C(F)(F)C(F)(F)F [PFHxS, Perfluorohexane sulfonate] | PFOS≈PFHxS>PFOA
O=C(O)C(F)(F)C(F)(F)C(F)(F)C(F)(F)C(F)(F)C(F)(F)C(F)(F)F [PFOA, perfluorooctanoic acid] | PFOS≈PFHxS>PFOA
